Assay results reported in patent US20020160486.
Substitutions are numbered along the chain they refer to. The exact form of at least one protein or probe is not confirmed. Protein sequences can lack the tags named with them.

What was measured:
[1] = molecular target: T1, Human RNase H1 wild-type (Homo sapiens) (UniProt O60930); assay: enzyme reaction in vitro; conditions: initial rate V0; 1 mM MgCl2, 37 C; purified recombinant protein; label: 5'-32P on RNA strand; DNA:RNA hybrid
T1 sequence (looked up, limits assumed): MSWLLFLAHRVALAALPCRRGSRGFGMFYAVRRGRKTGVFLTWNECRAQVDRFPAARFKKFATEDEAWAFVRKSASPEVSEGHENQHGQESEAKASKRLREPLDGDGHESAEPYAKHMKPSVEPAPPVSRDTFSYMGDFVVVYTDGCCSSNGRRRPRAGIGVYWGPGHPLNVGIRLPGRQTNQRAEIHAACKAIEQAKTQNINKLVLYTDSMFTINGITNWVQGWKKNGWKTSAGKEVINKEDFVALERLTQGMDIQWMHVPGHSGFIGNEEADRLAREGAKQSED

[2] = molecular target: T2, RNase H1[K226,227A] K226A,K227A (Homo sapiens) (UniProt O60930); assay: enzyme reaction in vitro; conditions: initial rate V0; 1 mM MgCl2, 37 C; purified recombinant protein; protein details: His-tag; label: 5'-32P on RNA strand; DNA:RNA hybrid
T2 sequence (looked up, limits assumed): T1 sequence (looked up, limits assumed) with K226A, K227A

[3] = molecular target: T3, RNase H1[deltaI-II] del 1-135 (Homo sapiens) (UniProt O60930); assay: enzyme reaction in vitro; conditions: initial rate V0; 1 mM MgCl2, 37 C; broader cleavage pattern, 7-13 nt from RNA 5' end; purified recombinant protein; protein details: His-tag; label: 5'-32P on RNA strand; DNA:RNA hybrid
T3 sequence (looked up, limits assumed): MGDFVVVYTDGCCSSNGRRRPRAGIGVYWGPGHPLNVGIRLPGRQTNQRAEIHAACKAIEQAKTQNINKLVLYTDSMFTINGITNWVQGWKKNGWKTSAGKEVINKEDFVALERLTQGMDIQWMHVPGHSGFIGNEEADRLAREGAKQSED

[4] = molecular target: T4, RNase H1[deltaII] del 74-135 (Homo sapiens) (UniProt O60930); assay: enzyme reaction in vitro; conditions: initial rate V0; 1 mM MgCl2, 37 C; purified recombinant protein; protein details: His-tag; label: 5'-32P on RNA strand; DNA:RNA hybrid
T4 sequence (looked up, limits assumed): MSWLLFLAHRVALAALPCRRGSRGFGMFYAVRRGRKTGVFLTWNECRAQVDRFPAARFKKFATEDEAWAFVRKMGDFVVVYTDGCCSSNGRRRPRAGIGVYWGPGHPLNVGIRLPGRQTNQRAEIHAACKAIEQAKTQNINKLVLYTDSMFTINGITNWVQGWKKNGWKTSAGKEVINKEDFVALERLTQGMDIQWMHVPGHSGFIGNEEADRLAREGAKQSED

[5] = molecular target: T5, RNase H1[deltaI] del 1-73 (Homo sapiens) (UniProt O60930); assay: enzyme reaction in vitro; conditions: initial rate V0; 1 mM MgCl2, 37 C; broader cleavage pattern, 7-13 nt from RNA 5' end; purified recombinant protein; protein details: His-tag; label: 5'-32P on RNA strand; DNA:RNA hybrid
T5 sequence (looked up, limits assumed): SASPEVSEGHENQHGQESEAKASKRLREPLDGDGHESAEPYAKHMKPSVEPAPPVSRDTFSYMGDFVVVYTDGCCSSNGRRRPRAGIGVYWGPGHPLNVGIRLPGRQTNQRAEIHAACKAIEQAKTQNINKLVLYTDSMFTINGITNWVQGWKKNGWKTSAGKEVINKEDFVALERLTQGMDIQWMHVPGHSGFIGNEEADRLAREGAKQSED

[6] = molecular target: T6, RNase H1[D145N] (Homo sapiens) (UniProt O60930); assay: competition with a labelled probe; conditions: inhibits wild-type: wild-type V0 6-fold faster alone than with mutant at 10-fold excess; purified recombinant protein; protein details: His-tag; label: 5'-32P on RNA strand; DNA:RNA hybrid
T6 sequence (looked up, limits assumed): T1 sequence (looked up, limits assumed) with D145N

[7] = molecular target: T7, RNase H1[K226,227,231,236A] K226A,K227A,K231A,K236A (Homo sapiens) (UniProt O60930); assay: competition with a labelled probe; conditions: wild-type V0 about 60% slower in presence of mutant at 10-fold excess; purified recombinant protein; protein details: His-tag; label: 5'-32P on RNA strand; DNA:RNA hybrid
T7 sequence (looked up, limits assumed): T1 sequence (looked up, limits assumed) with K226A, K227A, K231A, K236A

[8] = molecular target: T4, RNase H1[deltaII] del 74-135 (Homo sapiens); assay: competition with a labelled probe; conditions: wild-type V0 about 50% slower in presence of mutant at 10-fold excess; purified recombinant protein; protein details: His-tag; label: 5'-32P on RNA strand; DNA:RNA hybrid

Sequence: GGGCGCCGUCGGUGUGG [17-mer RNA/DNA heteroduplex]
- activity on this sequence [1]: active
- activity on this sequence [2]: active
- activity on this sequence [3]: active
- activity on this sequence [4]: active
- activity on this sequence [5]: active
- binding result [6]: binds
- binding result [7]: binds
- binding result [8]: binds
